{
  "source": "patent US20180344715A1",
  "about": "“WNT/BETA-CATENIN SIGNAL TRANSDUCTION INHIBITORS AND THEIR USE IN TREATMENT OR PREVENTION OF DISEASES AND CONDITIONS LINKED WITH SAID TRANSDUCTION” (BERGEN TEKNOLOGIOVERFORING AS, priority 2015, published 2018)",
  "key": {"zebrafish embryos": {"tested_on": "zebrafish embryos", "conditions": "embryos treated from 6 hpf"}, "VEGFRs": {"tested_on": "VEGFRs", "conditions": "1 μM"}, "Wnt/β-catenin signaling": {"tested_on": "Wnt/β-catenin signaling", "assay": "TOPFlash reporter assay in 293FT cells", "format": "cell-based, human", "conditions": "24 hours", "protocol": "TOPFlash assay was performed in 96-well plate. For each well, 293T cells were transfected with 0.22 μg TOPFlash (or FOPFlash with mutant TCF binding sites) and 0.02 μg pRL-SV40P using lipofectamine 3000. For co-transfection with other plasmids, 0.1 μg additional DNA was used. […] The luciferase activity was measured 24 hours later by using Dual-Glo® Luciferase Assay System (Promega, E2940) according to the recommended protocol. The TOPFlash or FOPFlash activity was normalized to Renilla luciferase signals.\nTOPFlash assay was performed as described above. Briefly, for each well of a 96-well plate 293FT cells were transfected with 0.22 μg TOPFlash (or FOPFlash with mutant TCF binding sites) and 0.02 μg pRL-SV40P using lipofectamine 3000. For co-transfection with other plasmids, 0.1 μg additional DNA was used. Four hours after transfection, 293FT cells were treated with DMSO, 1 μM 6B10 and 1 μM 6B10 together with pazopanib, orlistat and topotecan at varying concentrations for 24 hours. The luciferase activity was then measured using Dual-Glo® Luciferase Assay System (Promega, E2940) according to the recommended protocol. The TOPFlash or FOPFlash activity was normalized to Renilla luciferase signals."}},
  "data": [
    {"smiles": "CNC(=O)c1ccccc1Sc1ccc2c(/C=C/c3ccccn3)n[nH]c2c1", "note": "[axitinib, N-Methyl-2-[[3-[(E)-2-pyridin-2-ylethenyl]-1H-indazol-6-yl]sulfanyl]benzamide]", "values": [
      {"measurement": "rescue of eyeless phenotype generated by GSK3β inhibition", "setting": "zebrafish embryos", "value": "dose-dependently and totally rescued"},
      {"measurement": "inhibition of VEGFRs, in vitro kinase activity", "setting": "VEGFRs", "value": "confirmed"},
      {"measurement": "Wnt inhibition (TOPFlash) in cells overexpressing β-catenin-4A", "setting": "Wnt/β-catenin signaling; 293FT cells overexpressing β-catenin-4A (Ser33A/Ser37A/Thr41A/Ser45A)", "value": "Wnt inhibition by axitinib was confirmed"},
      {"measurement": "inhibition of Wnt/β-catenin signaling activated by GSK3β inhibitor 6BIO, reporter based screening of FDA approved drugs", "setting": "Wnt/β-catenin signaling; 293FT cells, 6BIO 1 μM, 460 FDA approved drugs at 10 μM", "value": "strongest inhibition"}
    ]}
  ]
}
